At least one compound was matched to its structure with a doubt left.
Legend:
ASIC2a = molecular target: T1, ASIC2a (Homo sapiens, UniProt Q16515); test: Blockade of ASIC 2a current expressed in CHO cells; assay type: cell-based; conditions: FIG. 17
T1 construct: expressed in transfected cells; host or cells: CHO
T1 sequence (Q16515 1-512): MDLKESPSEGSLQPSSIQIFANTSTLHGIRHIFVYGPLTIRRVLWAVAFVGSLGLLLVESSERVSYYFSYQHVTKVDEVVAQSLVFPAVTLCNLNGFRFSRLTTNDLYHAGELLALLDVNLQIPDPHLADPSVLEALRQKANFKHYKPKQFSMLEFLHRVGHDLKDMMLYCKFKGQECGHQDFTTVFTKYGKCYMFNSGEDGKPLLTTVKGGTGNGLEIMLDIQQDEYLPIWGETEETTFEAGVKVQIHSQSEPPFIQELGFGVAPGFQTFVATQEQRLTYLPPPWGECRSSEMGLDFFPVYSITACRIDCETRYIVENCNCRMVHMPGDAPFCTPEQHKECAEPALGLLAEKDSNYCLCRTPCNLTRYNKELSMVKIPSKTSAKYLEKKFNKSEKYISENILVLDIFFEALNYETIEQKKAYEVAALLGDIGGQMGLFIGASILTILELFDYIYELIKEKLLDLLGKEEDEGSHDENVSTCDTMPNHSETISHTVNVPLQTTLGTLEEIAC

ASIC1a = molecular target: T2, ASIC1a (Homo sapiens, UniProt P78348); test: Blockade of ASIC 1a current expressed in CHO cells; assay type: cell-based; set-up: expressed in transfected cells; host or cells: CHO; conditions: FIG. 16
T2 sequence (P78348 1-528): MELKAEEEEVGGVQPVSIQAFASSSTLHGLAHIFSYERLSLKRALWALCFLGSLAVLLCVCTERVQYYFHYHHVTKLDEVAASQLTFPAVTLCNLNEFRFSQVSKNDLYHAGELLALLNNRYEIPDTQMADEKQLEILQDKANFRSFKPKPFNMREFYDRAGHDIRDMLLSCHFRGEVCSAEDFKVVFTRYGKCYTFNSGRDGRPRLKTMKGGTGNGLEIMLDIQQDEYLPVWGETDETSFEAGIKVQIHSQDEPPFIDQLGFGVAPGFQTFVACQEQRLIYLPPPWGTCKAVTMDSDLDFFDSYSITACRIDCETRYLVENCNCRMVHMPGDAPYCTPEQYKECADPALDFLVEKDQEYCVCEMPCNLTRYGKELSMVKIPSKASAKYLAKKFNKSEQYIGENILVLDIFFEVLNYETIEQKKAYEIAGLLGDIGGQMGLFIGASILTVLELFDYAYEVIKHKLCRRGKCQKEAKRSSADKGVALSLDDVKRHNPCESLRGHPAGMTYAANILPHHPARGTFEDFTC

`NC(=NCc1ccccc1)NC(=O)c1nc(Cl)c(N)nc1N` [benzamil] was tested, and the “block of ASIC2a current” value (ASIC2a) was “dose-dependent” and the “block of ASIC1a current” value (ASIC1a) was “dose-dependent”.

From EP3035931B1, “COMPOSITION FOR REDUCING NERVOUS SYSTEM INJURY AND METHOD OF MAKING AND USE THEREOF” (Morehouse School of Medicine, priority 2013, dated 2015)
